Test results taken from paper PMC5587550.
Results are given in words; binding and its absence hold for the method and conditions named. For part of these data: In cells and extracts the contact can be indirect. Some results given as binding are weak or reduced against the parent protein; the word gives no strength.

Amino acid sequences for entries named in this document (tags omitted).
UniProt Q15596: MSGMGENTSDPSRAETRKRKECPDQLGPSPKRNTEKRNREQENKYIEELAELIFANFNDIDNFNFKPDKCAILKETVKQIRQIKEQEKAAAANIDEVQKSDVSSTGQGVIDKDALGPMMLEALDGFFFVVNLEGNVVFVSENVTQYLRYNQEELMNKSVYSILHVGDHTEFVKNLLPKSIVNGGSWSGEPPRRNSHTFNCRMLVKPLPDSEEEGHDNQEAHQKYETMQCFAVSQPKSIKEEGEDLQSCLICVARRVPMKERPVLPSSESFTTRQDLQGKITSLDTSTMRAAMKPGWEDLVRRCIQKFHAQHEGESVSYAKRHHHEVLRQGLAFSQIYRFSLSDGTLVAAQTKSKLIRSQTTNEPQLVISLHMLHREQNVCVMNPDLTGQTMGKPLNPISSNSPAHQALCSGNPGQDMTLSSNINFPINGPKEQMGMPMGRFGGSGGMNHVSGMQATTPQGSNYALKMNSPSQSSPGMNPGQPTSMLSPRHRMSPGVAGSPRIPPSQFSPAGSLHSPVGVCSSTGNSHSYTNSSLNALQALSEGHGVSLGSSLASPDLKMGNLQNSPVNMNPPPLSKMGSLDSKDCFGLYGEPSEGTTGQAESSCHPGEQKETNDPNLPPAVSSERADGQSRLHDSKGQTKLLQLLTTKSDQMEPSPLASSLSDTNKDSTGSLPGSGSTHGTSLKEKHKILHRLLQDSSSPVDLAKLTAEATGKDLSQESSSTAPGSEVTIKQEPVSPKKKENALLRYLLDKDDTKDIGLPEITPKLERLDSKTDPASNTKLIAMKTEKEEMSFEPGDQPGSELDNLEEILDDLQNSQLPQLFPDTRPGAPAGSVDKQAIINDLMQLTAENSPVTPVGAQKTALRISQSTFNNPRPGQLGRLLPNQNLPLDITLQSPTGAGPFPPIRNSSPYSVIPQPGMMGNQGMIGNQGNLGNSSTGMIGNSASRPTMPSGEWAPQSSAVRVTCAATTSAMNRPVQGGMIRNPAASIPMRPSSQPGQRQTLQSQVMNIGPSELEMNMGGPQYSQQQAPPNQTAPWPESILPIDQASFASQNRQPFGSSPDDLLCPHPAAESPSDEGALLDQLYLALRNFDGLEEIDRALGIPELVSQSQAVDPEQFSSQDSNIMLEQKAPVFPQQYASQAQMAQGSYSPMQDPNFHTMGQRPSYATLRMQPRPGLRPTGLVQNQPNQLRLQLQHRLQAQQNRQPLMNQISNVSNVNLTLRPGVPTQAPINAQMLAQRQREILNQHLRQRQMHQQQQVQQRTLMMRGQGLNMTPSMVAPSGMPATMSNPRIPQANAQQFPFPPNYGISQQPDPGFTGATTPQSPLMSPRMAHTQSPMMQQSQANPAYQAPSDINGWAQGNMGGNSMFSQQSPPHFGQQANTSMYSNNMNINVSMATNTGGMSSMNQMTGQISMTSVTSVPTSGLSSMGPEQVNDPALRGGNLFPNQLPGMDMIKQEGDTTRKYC
UniProt Q9Y5X4: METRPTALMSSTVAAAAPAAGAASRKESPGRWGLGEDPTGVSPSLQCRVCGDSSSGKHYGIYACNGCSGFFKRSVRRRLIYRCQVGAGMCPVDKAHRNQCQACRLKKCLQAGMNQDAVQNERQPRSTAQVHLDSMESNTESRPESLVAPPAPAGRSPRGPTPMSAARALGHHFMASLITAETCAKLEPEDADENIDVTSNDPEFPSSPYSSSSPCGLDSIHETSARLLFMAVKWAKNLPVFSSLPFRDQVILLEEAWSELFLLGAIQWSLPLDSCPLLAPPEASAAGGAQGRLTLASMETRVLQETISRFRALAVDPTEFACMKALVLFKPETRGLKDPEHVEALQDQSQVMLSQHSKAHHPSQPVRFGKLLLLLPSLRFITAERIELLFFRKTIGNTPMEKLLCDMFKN
UniProt P08047: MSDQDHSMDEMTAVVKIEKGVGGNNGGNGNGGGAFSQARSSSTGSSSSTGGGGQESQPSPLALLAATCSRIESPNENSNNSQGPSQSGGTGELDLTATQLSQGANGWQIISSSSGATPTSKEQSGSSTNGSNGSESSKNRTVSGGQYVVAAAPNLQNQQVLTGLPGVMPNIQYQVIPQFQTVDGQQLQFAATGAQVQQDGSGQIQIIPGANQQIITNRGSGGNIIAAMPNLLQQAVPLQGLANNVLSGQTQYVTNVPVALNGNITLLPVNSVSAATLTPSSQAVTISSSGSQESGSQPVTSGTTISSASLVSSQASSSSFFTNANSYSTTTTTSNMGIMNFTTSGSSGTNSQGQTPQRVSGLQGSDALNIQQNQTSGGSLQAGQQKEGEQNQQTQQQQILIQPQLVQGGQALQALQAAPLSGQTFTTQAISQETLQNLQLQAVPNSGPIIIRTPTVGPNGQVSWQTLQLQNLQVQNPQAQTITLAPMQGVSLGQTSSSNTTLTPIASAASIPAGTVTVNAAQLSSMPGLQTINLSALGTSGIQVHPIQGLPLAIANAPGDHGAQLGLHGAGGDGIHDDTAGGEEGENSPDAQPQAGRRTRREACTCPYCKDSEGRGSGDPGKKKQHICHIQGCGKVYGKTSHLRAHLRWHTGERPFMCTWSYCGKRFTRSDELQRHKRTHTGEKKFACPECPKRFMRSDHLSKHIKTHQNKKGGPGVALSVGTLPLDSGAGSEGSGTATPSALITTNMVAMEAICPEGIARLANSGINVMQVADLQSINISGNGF

How the values were obtained:
[1] = molecular target: glucocorticoid receptor-interacting protein1 (GRIP1) (human (endogenous in HepG2 and MCF-7)) (UniProt Q15596); test: co-IP; HepG2 cell lysate (~2 mg total protein), 3 ug antibody or control IgG at 4 °C overnight, protein G magnetic beads (Universal Magnetic Co-IP Kit), immunoblot; done in both directions
[2] = molecular target: glucocorticoid receptor-interacting protein1 (GRIP1) (human (endogenous in HepG2 and MCF-7)) (UniProt Q15596); test: co-IP; MCF-7 cell lysate (~2 mg total protein), 3 ug antibody or control IgG at 4 °C overnight, protein G magnetic beads (Universal Magnetic Co-IP Kit), immunoblot
[3] = molecular target: Nuclear receptor subfamily 2 group E, Member 3 (NR2E3) (human (endogenous in HepG2 and MCF-7)) (UniProt Q9Y5X4); test: co-IP; NR2E3 and Sp1; cell line and direction not told in the text (Supplementary Fig. 2a); method taken from the context
[4] = molecular target: Nuclear receptor subfamily 2 group E, Member 3 (NR2E3) (human (endogenous in HepG2 and MCF-7)) (UniProt Q9Y5X4); test: Re-ChIP-PCR; MCF-7 cell lysate; sequential chromatin immunoprecipitation, PCR of the AHR promoter
[5] = molecular target: Nuclear receptor subfamily 2 group E, Member 3 (NR2E3) (human (endogenous in HepG2 and MCF-7)) (UniProt Q9Y5X4); test: Re-ChIP-PCR; HepG2 cells; formaldehyde-fixed chromatin first immunoprecipitated with anti-NR2E3, then with anti-GRIP1 or anti-Sp1; PCR of the proximal AHR promoter (-283 to -90)
[6] = molecular target: Nuclear receptor subfamily 2 group E, Member 3 (NR2E3) (human (endogenous in HepG2 and MCF-7)) (UniProt Q9Y5X4); test: co-IP; HepG2 cell lysate (~2 mg total protein), 3 ug antibody or control IgG at 4 °C overnight, protein G magnetic beads (Universal Magnetic Co-IP Kit), immunoblot; done in both directions
[7] = molecular target: Nuclear receptor subfamily 2 group E, Member 3 (NR2E3) (human (endogenous in HepG2 and MCF-7)) (UniProt Q9Y5X4); test: co-IP; MCF-7 cell lysate (~2 mg total protein), 3 ug antibody or control IgG at 4 °C overnight, protein G magnetic beads (Universal Magnetic Co-IP Kit), immunoblot

Measured: binding

Nuclear receptor subfamily 2 group E, Member 3 (NR2E3) (from UniProt Q9Y5X4 1-410)
binds: [1] | [2]

specificity protein 1 (Sp1) (from UniProt P08047 1-785)
binds: [3] | [4] | [5]

glucocorticoid receptor-interacting protein1 (GRIP1) (from UniProt Q15596 1-1464)
binds: [6] | [4] | [5] | [7]
